Data published in article PMC6852550.
No constants are given. Whether binding was seen depends on the method and setting. In cells and extracts the contact can be indirect. Here binding means that the protein was enriched with, or labelled near, the bait; the list need not be complete. No binding means not detected with the bait. For part of these data: Tags and fused reporters may be left off the sequences shown. Values belong to the molecule of their own block, whether it stands above or below them.

Sequences of proteins named here, by UniProt entry; tags and fusion partners are left off. A change or cut given only in a name is not applied to a line headed by its entry.
UniProt Q8W5S1: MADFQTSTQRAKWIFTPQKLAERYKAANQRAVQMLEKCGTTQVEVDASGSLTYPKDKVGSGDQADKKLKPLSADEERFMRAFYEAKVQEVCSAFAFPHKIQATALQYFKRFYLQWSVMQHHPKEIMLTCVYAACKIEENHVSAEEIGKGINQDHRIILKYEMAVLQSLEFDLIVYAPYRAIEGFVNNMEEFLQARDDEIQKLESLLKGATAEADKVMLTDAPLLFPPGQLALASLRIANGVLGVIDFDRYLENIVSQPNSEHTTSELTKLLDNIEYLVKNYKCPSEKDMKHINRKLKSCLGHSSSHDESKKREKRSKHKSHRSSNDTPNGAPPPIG
UniProt Q3ECP0: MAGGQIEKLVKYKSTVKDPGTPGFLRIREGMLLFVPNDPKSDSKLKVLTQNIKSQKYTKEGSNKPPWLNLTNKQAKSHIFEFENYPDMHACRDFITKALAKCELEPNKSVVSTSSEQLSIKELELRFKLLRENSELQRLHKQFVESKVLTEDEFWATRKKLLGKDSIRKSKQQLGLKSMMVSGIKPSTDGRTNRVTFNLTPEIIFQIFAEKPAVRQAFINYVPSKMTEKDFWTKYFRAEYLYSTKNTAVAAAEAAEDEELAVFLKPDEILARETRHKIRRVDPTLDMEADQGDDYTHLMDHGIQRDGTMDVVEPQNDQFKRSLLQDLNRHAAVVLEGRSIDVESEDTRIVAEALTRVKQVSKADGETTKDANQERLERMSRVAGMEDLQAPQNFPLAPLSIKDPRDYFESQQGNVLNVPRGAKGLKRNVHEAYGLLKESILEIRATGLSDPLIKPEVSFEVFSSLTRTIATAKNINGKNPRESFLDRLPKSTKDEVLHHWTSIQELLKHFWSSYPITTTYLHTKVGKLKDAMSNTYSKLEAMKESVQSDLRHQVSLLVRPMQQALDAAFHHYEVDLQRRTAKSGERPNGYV

Assays:
[1] = molecular target: T1, CDKD;2:GFP–PIPL (CYCLIN-… KINASE D;2 with C-terminal GFP and PIPL tag) (Arabidopsis thaliana) (UniProt Q9C9M7); test: affinity purification with mass spectrometry; GFP-Trap agarose on 20 mg protein extract of rosette plants expressing CDKD;2-GFP-PIPL, three biological replicates, controls wild type and YFP-HA plants; washed with 50 mM Tris-HCl pH 7.5, 300 mM NaCl; eluted with 0.1% TFA; LC-MS/MS
T1 sequence: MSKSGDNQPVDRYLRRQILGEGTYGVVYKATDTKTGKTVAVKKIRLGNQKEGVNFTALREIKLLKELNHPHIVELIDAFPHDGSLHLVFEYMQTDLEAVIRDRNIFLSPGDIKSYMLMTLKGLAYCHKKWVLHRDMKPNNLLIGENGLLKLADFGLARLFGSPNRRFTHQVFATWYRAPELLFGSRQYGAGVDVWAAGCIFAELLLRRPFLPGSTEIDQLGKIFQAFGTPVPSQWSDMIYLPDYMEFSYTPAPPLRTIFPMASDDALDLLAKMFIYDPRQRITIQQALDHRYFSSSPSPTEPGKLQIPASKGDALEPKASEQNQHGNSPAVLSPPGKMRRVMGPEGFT

[2] = molecular target: CYCH:mCherry (CYCLIN H with C-terminal mCherry) (Arabidopsis thaliana) (UniProt Q8W5S1); test: affinity purification with mass spectrometry; RFP-Trap agarose on 20 mg protein extract of rosette plants expressing CYCH-mCherry or HISTONE H3.1:mCherry (each the control of the other) and wild type, three biological replicates; washed with 50 mM Tris-HCl pH 7.5, 300 mM NaCl; on-bead trypsin digestion; LC-MS/MS

Molecule: MAT1 (cyclin-dependent kinase-activating kinase assembly factor-related)
binding [1]: binds

Molecule: CYCLIN H (CYCH), endogenous (from UniProt Q8W5S1)
binding [1]: binds

B4: CDKF;1, endogenous (enzyme, UniProt O80345 1-479)
chain: MDKQPATSWSIHTRPEIIAKYEIFERVGSGAYADVYRARRLSDGLIVALKEIFDYQSAFREIDALTILNGSPNVVVMHEYFWREEENAVLVLEFLRSDLAAVIRDGKRKKKVEGGDGFSVGEIKRWMIQILTGVDACHRNLIVHRDLKPGNMLISDDGVLKLADFGQARILMEHDIVASDENQQAYKLEDKDGETSEPPEVIPDYENSPRQGSDGQEREAMSKDEYFRQVEELKAKQVVRDDTDKDSNVHDGDISCLATCTVSEMDDDLGRNSFSYDADEAVDDTQGLMTSCVGTRWFRPPELLYGSTMYGLEVDLWSLGCVFAELLSLEPLFPGISDIDQISRVTNVLGNLNEEVWPGCVDLPDYKSISFAKVESPLGIEGCLPNHSGDVISLLKKLICYDPASRATTMEMLNDKYLSEEPLPVPVSELYVPPTMSGPDEDSPRKWNDYREMDSDSDFDGFGPMNVKPTSSGFTIEFP
binding [1]: binds | binding [2]: no binding

B5: CDKD;2, endogenous (enzyme, UniProt Q9C9M7 1-348)
chain: MSKSGDNQPVDRYLRRQILGEGTYGVVYKATDTKTGKTVAVKKIRLGNQKEGVNFTALREIKLLKELNHPHIVELIDAFPHDGSLHLVFEYMQTDLEAVIRDRNIFLSPGDIKSYMLMTLKGLAYCHKKWVLHRDMKPNNLLIGENGLLKLADFGLARLFGSPNRRFTHQVFATWYRAPELLFGSRQYGAGVDVWAAGCIFAELLLRRPFLPGSTEIDQLGKIFQAFGTPVPSQWSDMIYLPDYMEFSYTPAPPLRTIFPMASDDALDLLAKMFIYDPRQRITIQQALDHRYFSSSPSPTEPGKLQIPASKGDALEPKASEQNQHGNSPAVLSPPGKMRRVMGPEGFT
binding [2]: binds

B6: XPD (5' to 3' helicase XERODERMA PIGMENTOSUM GROUP D) (enzyme, UniProt Q8W4M7 1-758)
chain: MIFKIEDVTVYFPYDNIYPEQYEYMVELKRALDAKGHCLLEMPTGTGKTIALLSLITSYRLSRPDSPIKLVYCTRTVHEMEKTLGELKLLHDYQVRHLGTQAKILALGLSSRKNLCVNTKVLAAENRDSVDAACRKRTASWVRALSTENPNVELCDFFENYEKAAENALLPPGVYTLEDLRAFGKNRGWCPYFLARHMIQFANVIVYSYQYLLDPKVAGFISKELQKESVVVFDEAHNIDNVCIEALSVSVRRVTLEGANRNLNKIRQEIDRFKATDAGRLRAEYNRLVEGLALRGDLSGGDQWLANPALPHDILKEAVPGNIRRAEHFVHVLRRLLQYLGVRLDTENVEKESPVSFVSSLNSQAGIEQKTLKFCYDRLQSLMLTLEITDTDEFLPIQTVCDFATLVGTYARGFSIIIEPYDERMPHIPDPILQLSCHDASLAIKPVFDRFQSVVITSGTLSPIDLYPRLLNFTPVVSRSFKMSMTRDCICPMVLTRGSDQLPVSTKFDMRSDPGVVRNYGKLLVEMVSIVPDGVVCFFVSYSYMDGIIATWNETGILKEIMQQKLVFIETQDVVETTLALDNYRRACDCGRGAVFFSVARGKVAEGIDFDRHYGRLVVMYGVPFQYTLSKILRARLEYLHDTFQIKEGDFLTFDALRQAAQCVGRVIRSKADYGMMIFADKRYSRHDKRSKLPGWILSHLRDAHLNLSTDMAIHIAREFLRKMAQPYDKAGTMGRKTLLTQEDLEKMAETGVQDMAY
binding [1]: binds

B7: XPB1 (3' to 5' helicase XPB subunit of TFIIH) (enzyme, UniProt Q38861 1-767)
chain: MGNGERGRPNKKMKYGGKDDQKMKNIQNAEDYYDDADEDSRDGEGEEKKRDFTKLELKPDHGNRPLWACADGRIFLETFSPLYKQAYDFLIAIAEPVCRPESMHEYNLTPHSLYAAVSVGLETETIISVLNKLSKTKLPKEMIEFIHASTANYGKVKLVLKKNRYFIESPFPEVLKRLLSDDVINRARFSSEPYYGGDGFSVGRTCGELEAGPGELLNEAEFAAAAEEKETHSFEIDPAQVENVKQRCLPNALNYPMLEEYDFRNDNVNPDLDMELKPHAQPRPYQEKSLSKMFGNGRARSGIIVLPCGAGKSLVGVSAAARIKKSCLCLATNAVSVDQWAFQFKLWSTIRDDQICRFTSDSKERFRGNAGVVVTTYNMVAFGGKRSEESEKIIEEMRNREWGLLLMDEVHVVPAHMFRKVISITKSHCKLGLTATLVREDERITDLNFLIGPKLYEANWLDLVKGGFIANVQCAEVWCPMTKEFFAEYLKKENSKKKQALYVMNPNKFRACEFLIRFHEQQRGDKIIVFADNLFALTEYAMKLRKPMIYGATSHIERTKILEAFKTSKDVNTVFLSKVGDNSIDIPEANVIIQISSHAGSRRQEAQRLGRILRAKGKLEDRMAGGKEEYNAFFYSLVSTDTQEMYYSTKRQQFLIDQGYSFKVITSLPPPDAGSSLSYHSQEEQLSLLGKVMNAGDDLVGLEQLEEDTDGMALQKARRSMGSMSVMSGSKGMVYMEYNSGRHKSGQQFKKPKDPTKRHNLFKKRYV
binding [1]: no binding | binding [2]: no binding

B8: XPB2 (3' to 5' helicase XPB subunit of TFIIH) (enzyme, UniProt Q9FUG4 1-766)
chain: MGNDERKRPTKKMKYGGKDDQKMKNIQNVEDYYDDADEDSRDGEGEEKRRDFTDLELKPDHGNRPLWACADGKIFLETFSPLYKQAYDFLIAIAEPVCRPESMHEYNLTPHSLYAAVSVGLETETIISVLNKLSKTKLPGEIIDFIHASTANYGKVKLVLKKNRYFIESPFPEVLKRLLSDDVINRARFTSEPYYGGDGFTIGKTSGELEAGPGELLNEAELAAAAEEKETHSFEIDPALVENVKQRCLPNALNYPMLEEYDFRNDNVNPDLDMELKPHAQPRPYQEKSLSKMFGNGRARSGIIVLPCGAGKSLVGVSAAARIKKSCLCLATNAVSVDQWAYQFKLWSTIKDDQICRFTSDSKERFRGNAGVVVTTYNMIAFGGKRSEEAEKIIEEMRNREWGLLLMDEVHVVPAHMFRKVISITKSHCKLGLTATLVREDEKITDLNFLIGPKLYEANWLDLVKGGFIANVQCAEVWCPMTKEFFAEYLKKENSKKKQALYVMNPNKFRACEFLIRFHEQQRGDKIIVFADNLFALTEYAMKLRKPMIYGATSHIERTKILEAFKTSKTVNTVFLSKVGDNSIDIPEANVIIQISSHAGSRRQEAQRLGRILRAKGKLEDRMAGGKEEYNAFFYSLVSTDTQEMYYSTKRQQFLIDQGYSFKVITSLPPPDAGSSLGYHSQEEQLSLLGKVLNAGDDMVGLEQLEEDTDGKALKTRRSMGSMSAMSGANGRVYMEYNSGRQKSGNQSKKPKDPTKRHNIFKKRYV
binding [1]: no binding | binding [2]: no binding

Continued, values first:

binding [1]: binds | binding [2]: binds
Molecule: p62 (GTF2H1-2) TFIIH subunit (from UniProt Q3ECP0)

binding [1]: binds | binding [2]: binds
B1: p52 (GTF2H4/TFB2) TFIIH subunit (protein, UniProt Q680U9 1-452)
chain: MPQVKIIAKNFMDMVASLPAIKLDKLYNNVFICEAILRSLPPLAKKYVLQMLYIDVPVPATMMEEWVLADGTSKHRVAIDRLIQLRIFSEISDRKRGTSYSLNPTFQNNLQKHIISGGVLPREPMNSDNAIKLPSLQELETYALKQWECFLLQLINSGQGEKLTGISSSMMKIFQRGLLSQRDKDGPRLTESGFQFLLMDTNAQLWYIIREYILNAEERDVDPADLISFLLELSFHVTGQAYNLNTLTEVQNNTLKDLADLGLVKLQQGRKDSWFIPTKLATNLSVSLADSSARKEGFVVMETNFRMYAYSTSKLQCEILRLFARIEYQLPNLIACAITKESLYNAFDNGITSDQIITFLQQNSHPRCADRVPSIPENVTDQIRLWETDLQRIEMTQAHFYDEFPSKDVFEAACDFAREWRGLLWEDSKRMRLVVKSEVHNQMREFLHTQSR

binding [1]: binds | binding [2]: binds
B2: p44 (GTF2H2/TF2H5/TTDA) TFIIH subunit (protein, UniProt Q9ZVN9 1-421)
chain: MSNQRKRSNDEREEEDDEDAEGIGEWERAYVDDRSWEELQEDESGLLRPIDNSAIYHAQYRRRLRMLSAAAAGTRIQKGLIRYLYIVIDFSRAAAEMDFRPSRMAIMAKHVEAFIREFFDQNPLSQIGLVSIKNGVAHTLTDLGGSPETHIKALMGKLEALGDSSLQNALELVHEHLNQVPSYGHREVLILYSALCTCDPGDIMETIQKCKKSKLRCSVIGLSAEMFICKHLCQETGGLYSVAVDEVHLKDLLLEHAPPPPAIAEFAIANLIKMGFPQRAAEGSMAICSCHKEVKIGAGYMCPRCKARVCDLPTECTICGLTLVSSPHLARSYHHLFPIAPFDEVPALSSLNDNRRKLGKSCFGCQQSLIGAGNKPVPCVTCRKCKHYFCLDCDIYIHESLHNCPGCESIHRPKSVSLMEE

binding [1]: binds | binding [2]: binds
B3: p34 (GTF2H3/TFB4) TFIIH subunit (protein, UniProt Q8LF41 1-301)
chain: MPAIASKQYSDDVSLLVLLLDTNPLFWSTTSITFSQFLSHVLAFLNAVLGLNQLNQVVVIATGYSSCDYIYDSSLTSNHGNFESNGTGMPAIFGSLLKKLEEFVTKDEELSKEEVSEDRIPSCLLSGSLSMALCYIQRVFRSGHLHPQPRILCLQGSPDGPEQYVAVMNSIFSAQRLMVPIDSCYIGVQNSAFLQQASYITGGVHHTPKQLDGLFQYLTTIFATDLHSRGFVQLPKPIGVDFRASCFCHKKTIDMGYICSVCLSIFCEHHKKCSTCGSVFGQSKLDDASSASDKKRKAPST
